Experimental data published in PMC6393520.

Target: T1, FLAG-ISL1 (Insulin gene enhancer binding protein 1) (UniProt P61371)
T1 sequence: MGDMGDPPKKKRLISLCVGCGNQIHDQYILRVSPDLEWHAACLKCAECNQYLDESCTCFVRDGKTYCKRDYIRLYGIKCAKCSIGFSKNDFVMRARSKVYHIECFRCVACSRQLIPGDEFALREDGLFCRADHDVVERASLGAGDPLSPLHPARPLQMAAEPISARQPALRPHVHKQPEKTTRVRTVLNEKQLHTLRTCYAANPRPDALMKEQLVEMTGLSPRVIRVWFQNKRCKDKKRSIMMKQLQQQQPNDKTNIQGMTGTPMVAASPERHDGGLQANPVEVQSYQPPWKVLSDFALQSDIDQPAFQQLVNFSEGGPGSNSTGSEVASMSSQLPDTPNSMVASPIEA
Assay: affinity purification with mass spectrometry; lysate of HEK 293FT cells transfected with pcDNA3.0-FLAG-ISL1 (48 h) applied to ANTI-FLAG M2 Affinity Gel, washed, eluted with FLAG peptides, LC-MS/MS

B1: SETD7 (protein, UniProt Q8WTS6 1-366)
chain: MDSDDEMVEEAVEGHLDDDGLPHGFCTVTYSSTDRFEGNFVHGEKNGRGKFFFFDGSTLEGYYVDDALQGQGVYTYEDGGVLQGTYVDGELNGPAQEYDTDGRLIFKGQYKDNIRHGVCWIYYPDGGSLVGEVNEDGEMTGEKIAYVYPDERTALYGKFIDGEMIEGKLATLMSTEEGRPHFELMPGNSVYHFDKSTSSCISTNALLPDPYESERVYVAESLISSAGEGLFSKVAVGPNTVMSFYNGVRITHQEVDSRDWALNGNTLSLDEETVIDVPEPYNHVSKYCASLGHKANHSFTPNCIYDMFVHPRFGPIKCIRTLRAVEADEELTVAYGYDHSPPGKSGPEAPEWYQVELKAFQATQQK
- binding: binds

These are yes or no findings as the source states them, for the method shown. In cells and extracts the contact can be indirect. A yes stands for co-enrichment or nearness to the bait. Other partners may have been found. Sequences can lack the tags named with a protein.
